Results from paper PMC6521869.
Results are given in words; binding and its absence hold for the method and conditions named. In cells and extracts the contact can be indirect. A result given as binding can be weak or reduced; the word gives no strength.

Target: S-tagged ZIKV NS4B (Zika virus (ZIKV), 2015 epidemic in Brazil)
Assay: pull-down

B1: EMC1 (protein, UniProt Q8N766 23-993)
chain: YEDQVGKFDWRQQYVGKVKFASLEFSPGSKKLVVATEKNVIAALNSRTGEILWRHVDKGTAEGAVDAMLLHGQDVITVSNGGRIMRSWETNIGGLNWEITLDSGSFQALGLVGLQESVRYIAVLKKTTLALHHLSSGHLKWVEHLPESDSIHYQMVYSYGSGVVWALGVVPFSHVNIVKFNVEDGEIVQQVRVSTPWLQHLSGACGVVDEAVLVCPDPSSRSLQTLALETEWELRQIPLQSLDLEFGSGFQPRVLPTQPNPVDASRAQFFLHLSPSHYALLQYHYGTLSLLKNFPQTALVSFATTGEKTVAAVMACRNEVQKSSSSEDGSMGSFSEKSSSKDSLACFNQTYTINLYLVETGRRLLDTTITFSLEQSGTRPERLYIQVFLKKDDSVGYRALVQTEDHLLLFLQQLAGKVVLWSREESLAEVVCLEMVDLPLTGAQAELEGEFGKKADGLLGMFLKRLSSQLILLQAWTSHLWKMFYDARKPRSQIKNEINIDTLARDEFNLQKMMVMVTASGKLFGIESSSGTILWKQYLPNVKPDSSFKLMVQRTTAHFPHPPQCTLLVKDKESGMSSLYVFNPIFGKWSQVAPPVLKRPILQSLLLPVMDQDYAKVLLLIDDEYKVTAFPATRNVLRQLHELAPSIFFYLVDAEQGRLCGYRLRKDLTTELSWELTIPPEVQRIVKVKGKRSSEHVHSQGRVMGDRSVLYKSLNPNLLAVVTESTDAHHERTFIGIFLIDGVTGRIIHSSVQKKAKGPVHIVHSENWVVYQYWNTKARRNEFTVLELYEGTEQYNATAFSSLDRPQLPQVLQQSYIFPSSISAMEATITERGITSRHLLIGLPSGAILSLPKALLDPRRPEIPTEQSREENLIPYSPDVQIHAERFINYNQTVSRMRGIYTAPSGLESTCLVVAYGLDIYQTRVYPSKQFDVLKDDYDYVLISSVLFGLVFATMITKRLAQVKLLNRAWR
  binding: binds
